Assay results: PubChem BioAssay AID540276 (National Center for Advancing Translational Sciences (NCATS), 2011)
About 5,400 (1.8%) of roughly 300,000 compounds were called active. The shares of active, inactive and inconclusive entries below differ from those in the screen. Calls come from the whole dose curve; tested in HEK293 cells. Potencies beside an inconclusive call are fits to weak or partial responses and may not hold up.

Assay: qHTS for inhibitors of binding or entry into cells for Marburg Virus
Settings: Marburg virus pseudotyped entry inhibition, cell reporter; activity change, negative = inhibition: at 37.8 µM (top of the series) unless noted
% is set by controls: 0 for no effect and ±100 for the full control effect; potency is the fitted concentration of half-maximal effect.

| Compound | Potency | activity change, negative = inhibition |
| --- | --- | --- |
| CC(C)Oc1ccc(C(=O)N2CCCCC2CCN2CCCCC2)cc1 (stereo not drawn) | inconclusive: 5.62 µM [activator, single point] | – |
| CCOc1ccccc1NC(=S)/C(=C(\[O-])c1ccc2c(c1)OCCO2)[n+]1ccc(CC)cc1 | active: 7.3 µM | – |
| CC(OC(=O)COc1ccc(C#N)cc1)C(=O)c1ccccc1 (stereo not drawn) | inconclusive: 0.891 µM [activator, partial curve, poor fit] | – |
| CC(C)(C)n1cnc2cc(NCc3ccc(Br)cc3)ccc21 | inconclusive: 3.98 µM [activator, single point] | – |
| COc1ccc(C)cc1NC(=O)Nc1ccccc1 | inactive | – |
| CCCC(=O)Nc1sc2c(c1C(=O)Nc1ccccn1)CCCC2 | inconclusive: 2.82 µM [inhibitor, full curve, poor fit] | – |
| CCOC(=O)c1c(C)[nH]c(C(=O)NNC(=O)c2ccccc2F)c1C | inactive | – |
| CC(Sc1nnc2n1CCCCC2)C(=O)Nc1cccc(S(=O)(=O)N2CCOCC2)c1 (stereo not drawn) | inconclusive: 15.8 µM [activator, single point] | – |
| CCn1c(CCNC(=O)c2ccc(OC)cc2)nnc1SCC(=O)Nc1ccccc1F | inactive | – |
| COc1ccc(NC(=O)CSc2nnc(Cc3cccn3C)n2-c2ccc(OC)cc2)cc1 | inactive | – |
| O=S(=O)(NC1=NCCCCCC1)c1cccs1 | inactive | – |
| Cc1cccc(-c2nc(C#N)c(N3CCC(C)CC3)o2)c1 | inactive | – |
| Cc1cc([N+](=O)[O-])ccc1NCc1ccccc1[N+](=O)[O-] | inconclusive: 4.47 µM [inhibitor, full curve, poor fit] | – |
| CC(=O)Oc1ccc(/C=N/NC(=S)Nc2ccccc2)cc1 | inconclusive: 25.1 µM [inhibitor, single point] | – |
| COc1ccc(C(=O)C[n+]2ccccc2C)cc1 | inconclusive: 10.3 µM [activator, partial curve, poor fit] | – |
| CCCOC(=O)c1c(-c2ccc(C)cc2C)csc1NC(=O)C1C2CCC(O2)C1C(=O)O (stereo not drawn) | inconclusive: 0.316 µM [inhibitor, partial curve, poor fit] | – |
| CC(=O)Nc1ccc2c(c1)ncn2C | inactive | – |
| COc1ccc(-c2noc(CCC(=O)NCCN3CCN(c4ccccc4F)CC3)n2)cc1 | inconclusive: 35.5 µM [inhibitor, single point] | – |
| Oc1ccc(-c2nc(-c3ccc(O)c(O)c3)cs2)cc1 | inconclusive: 35.5 µM [inhibitor, single point] | – |
| CC(=O)c1ccc(OC(=O)c2ccc(-n3nc(C)cc3C)cc2)cc1 | – | inconclusive: 30.4% [activator] [at 46.1 µM] |
| O=C1N(C2CCCC2)C[C@@H]2C[C@@H](c3cccn3-c3nccs3)N3CCC[C@@]123 | inconclusive: 25.1 µM [inhibitor, single point] | – |
| COc1cc2c(cc1OC)CN(C(C)C(=O)N1CCc3ccccc31)CC2 (stereo not drawn) | inconclusive: 11.2 µM [inhibitor, partial curve, poor fit] | – |
| CCCSc1ncc(Cl)c(C(=O)N2CCN(c3ccc(OC)cc3)CC2)n1 | inactive | – |

| Compound | Potency | activity change, negative = inhibition |
| --- | --- | --- |
| Cc1ccc(C)c(Cn2c(=O)n(CCCC(=O)NCc3ccc4c(c3)OCO4)c(=O)c3sccc32)c1 | inconclusive: 35.5 µM [inhibitor, single point] | – |
| O=C(CSCC(=O)N1CCOCC1)Nc1nc(-c2ccccc2)cs1 | inconclusive: 3.16 µM [activator, single point] | – |
| C=CCN1C(=O)C2C(C(=O)NC)C3(C)C=CC2(O3)C1C(=O)NCc1ccc(OC)cc1 (stereo not drawn) | inconclusive: 35.5 µM [activator, partial curve, poor fit] | – |
| CC(=O)Nc1ccc(S(=O)(=O)Nc2ccc3ccccc3n2)cc1 | inconclusive: 3.55 µM [inhibitor, partial curve] | – |
| O=C(NCc1cccnc1)c1cccc(NS(=O)(=O)c2ccc(Br)cc2)c1 | inconclusive: 1 µM [inhibitor, full curve, poor fit] | – |
| NNc1nc(-c2ccccc2)cc(-c2ccccc2O)n1 | inconclusive: 20.6 µM [inhibitor, single point] | – |
| Cc1cc(CNC(=O)c2cccc([N+](=O)[O-])c2)c2ccccc2n1 | inconclusive: 1 µM [inhibitor, full curve, poor fit] | – |
| CN1/C(=C/C(=O)COC(=O)CN2C(=O)C3CC=CCC3C2=O)C(C)(C)c2ccccc21 (stereo not drawn) | inconclusive: 5.62 µM [inhibitor, full curve] | – |
| CC(Sc1nc2ccccc2n1C)C(=O)NC(c1ccccc1)c1ccccc1 (stereo not drawn) | inconclusive: 20.6 µM [inhibitor, single point] | – |
| Cc1ccc(CNC(=O)Nc2ccccc2)c(C)c1 | inconclusive: 35.5 µM [inhibitor, single point] | – |
| Cc1cc[n+]2cc(-c3cccc([N+](=O)[O-])c3)c(-c3cccc([N+](=O)[O-])c3)cc2c1 | inconclusive: 10 µM [activator, partial curve] | – |
| COc1ccccc1C/C(N)=N/OC(=O)c1cccc([N+](=O)[O-])c1C | inconclusive: 9.2 µM [inhibitor, partial curve, poor fit] | – |
| COc1cc2c(cc1NC(=O)C(C)Oc1ccccc1)oc1ccccc12 (stereo not drawn) | inconclusive: 15.8 µM [activator, partial curve, poor fit] | – |
| COc1ccc2nc(N3C(=O)C(O)=C(C(=O)c4ccco4)C3c3ccco3)sc2c1 (stereo not drawn) | inconclusive: 35.5 µM [inhibitor, single point] | – |
| CCC1Oc2ccccc2N(CC(=O)NCCCN2CCN(Cc3ccccc3)CC2)C1=O (stereo not drawn) | inconclusive: 18.3 µM [inhibitor, single point] | – |
| CS(=O)(=O)c1ccc(C(=O)OC2CCOC2=O)cc1[N+](=O)[O-] (stereo not drawn) | inactive | – |
| CC(C)C(=O)Nc1ccc(N2CCN(C(=O)c3cccs3)CC2)cc1 | inactive | – |
| CCN(CC)c1ccc(C(=O)OCC(=O)NC2CCCCC2C)cc1 (stereo not drawn) | inactive | – |
| c1ccc2[nH]c(CSc3nnc(-c4ccncc4)o3)nc2c1 | inactive | – |
| CC(C)(C)NC(=O)C(c1ccc(-c2ccccc2)cc1)N(C[C@H]1CC[C@@H]([C@@H]2CC[C@H](CO)O2)O1)C(=O)c1cccc(Cl)c1 (stereo partly drawn) | inactive | – |
| N#CC1=C(N)N2C(=C(C#N)C13CCN(Cc1ccccc1)CC3)Nc1ccccc12 | inactive | – |
| COc1cccc(NC(=O)CN(C)C(=O)c2ccc(OCC3CCCO3)cc2)c1 (stereo not drawn) | inactive | – |
| CCc1ccccc1NC(=O)CSc1nc2c(c(=O)[nH]1)CN(Cc1ccccc1OC)CC2 | inactive | – |

Random excerpt: 2 records from the list.

| Compound | Potency | activity change, negative = inhibition |
| --- | --- | --- |
| CCc1ccccc1NC(=O)CSc1nc2c(c(=O)[nH]1)CN(Cc1ccccc1OC)CC2 | inactive | – |
| O=C(NCc1cccnc1)c1cccc(NS(=O)(=O)c2ccc(Br)cc2)c1 | inconclusive: 1 µM [inhibitor, full curve, poor fit] | – |

Next results follow:

| Compound | Potency | activity change, negative = inhibition |
| --- | --- | --- |
| O=c1c2cnn(-c3ccccc3)c2ncn1Cc1ccco1 | inactive | – |
| COC(=O)c1cc(Br)c(=O)n(-c2ccccn2)c1 | inconclusive: 35.5 µM [activator, single point] | – |
| COc1ccc(-c2cc(C(=O)Nc3cnn(Cc4ccc(F)cc4)c3)no2)cc1OC | inactive | – |
| CCOC(=O)N1CCC(NCCNC(=O)c2ccccc2Cl)CC1 | inactive | – |
| CC1CC(N(C(=O)c2ccco2)c2ccccc2)c2ccccc2N1C(=O)c1ccco1 (stereo not drawn) | inconclusive: 0.164 µM [inhibitor, single point] | – |
| CS(=O)(=O)N1CCc2cc(NC(=O)c3ccc(Cl)cc3Cl)ccc21 | inconclusive: 10 µM [inhibitor, partial curve, poor fit] | – |
| CN[C@H](CC(=O)O)C(=O)O | inconclusive: 0.0251 µM [inhibitor, full curve, poor fit] | – |
| Cc1oc2c(c1C(=O)c1ccccc1)C(=O)C(=O)c1ccccc1-2 | inconclusive: 35.5 µM [inhibitor, single point] | – |
| COc1ccc(-n2c(CNC(=O)c3ccc(S(=O)(=O)N4CCCC4)cc3)n[nH]c2=S)cc1 | inconclusive: 0.116 µM [inhibitor, single point] | – |
| Cn1ncc(N=Cc2ccc([N+](=O)[O-])cc2)c1C(=O)Nc1ccccc1 | inconclusive: 6.31 µM [inhibitor, single point] | – |
| O=C1c2ccccc2C(=O)N1CCCON1C(=O)c2ccccc2C1=O | inconclusive: 20 µM [activator, single point] | – |
| CCOC(=O)C(C)On1c(-c2ccc(Cl)cc2)nc2ccc([N+](=O)[O-])cc21 (stereo not drawn) | inconclusive: 12.6 µM [inhibitor, single point] | – |
| Cc1cccc(NC(=O)c2cc(-c3cc(C)ccc3O)n[nH]2)c1 | inconclusive: 0.708 µM [activator, partial curve, poor fit] | – |
| CCC(=O)OC1(C)C(=O)C=C2C=C(c3ccc(C#N)cc3)OC=C2C1=O (stereo not drawn) | inconclusive: 1.06 µM [inhibitor, single point] | – |
| CCCn1nnnc1NC(=O)COc1ccc(Br)cc1 | inactive | – |
| COc1[nH]c(/N=C/c2ccccc2)c(C#N)c1C#N | inconclusive: 35.5 µM [activator, single point] | – |
| COc1ccc(NC(=O)CNC(=O)Cc2ccccc2)cc1 | inconclusive: 1 µM [inhibitor, partial curve, poor fit] | – |
| Cc1ccc(S(=O)(=O)N2CCC[C@H]2C(=O)Nc2ccccc2C)cc1 | inconclusive: 35.5 µM [inhibitor, single point] | – |
| COc1cccc(/C=C2/SC(=O)N(C)C2=O)c1OCc1ccc(C(=O)O)cc1 | inconclusive: 0.891 µM [activator, full curve] | – |
| COc1ccc2c(Sc3ccc(Cl)cc3)c(C(=O)N3CCCCC3)[nH]c2c1 | inconclusive: 14.1 µM [inhibitor, partial curve, poor fit] | – |
| CC(=O)OC[C@H]1O[C@H](C#CC(C)(C)C)C=C[C@H]1OC(C)=O | inactive | – |
| COc1ccc(CCC(=O)OCC(=O)Nc2ccccc2)cc1 | inconclusive: 2.82 µM [activator, full curve] | – |

Entries shown so far with four or more nitrogen atoms (17):

| Compound | Potency | activity change, negative = inhibition |
| --- | --- | --- |
| CC(Sc1nnc2n1CCCCC2)C(=O)Nc1cccc(S(=O)(=O)N2CCOCC2)c1 (stereo not drawn) | inconclusive: 15.8 µM [activator, single point] | – |
| CCn1c(CCNC(=O)c2ccc(OC)cc2)nnc1SCC(=O)Nc1ccccc1F | inactive | – |
| COc1ccc(NC(=O)CSc2nnc(Cc3cccn3C)n2-c2ccc(OC)cc2)cc1 | inactive | – |
| COc1ccc(-c2noc(CCC(=O)NCCN3CCN(c4ccccc4F)CC3)n2)cc1 | inconclusive: 35.5 µM [inhibitor, single point] | – |
| O=C1N(C2CCCC2)C[C@@H]2C[C@@H](c3cccn3-c3nccs3)N3CCC[C@@]123 | inconclusive: 25.1 µM [inhibitor, single point] | – |
| CCCSc1ncc(Cl)c(C(=O)N2CCN(c3ccc(OC)cc3)CC2)n1 | inactive | – |
| NNc1nc(-c2ccccc2)cc(-c2ccccc2O)n1 | inconclusive: 20.6 µM [inhibitor, single point] | – |
| CCC1Oc2ccccc2N(CC(=O)NCCCN2CCN(Cc3ccccc3)CC2)C1=O (stereo not drawn) | inconclusive: 18.3 µM [inhibitor, single point] | – |
| c1ccc2[nH]c(CSc3nnc(-c4ccncc4)o3)nc2c1 | inactive | – |
| N#CC1=C(N)N2C(=C(C#N)C13CCN(Cc1ccccc1)CC3)Nc1ccccc12 | inactive | – |
| CCc1ccccc1NC(=O)CSc1nc2c(c(=O)[nH]1)CN(Cc1ccccc1OC)CC2 | inactive | – |
| O=c1c2cnn(-c3ccccc3)c2ncn1Cc1ccco1 | inactive | – |
| COc1ccc(-c2cc(C(=O)Nc3cnn(Cc4ccc(F)cc4)c3)no2)cc1OC | inactive | – |
| COc1ccc(-n2c(CNC(=O)c3ccc(S(=O)(=O)N4CCCC4)cc3)n[nH]c2=S)cc1 | inconclusive: 0.116 µM [inhibitor, single point] | – |
| Cn1ncc(N=Cc2ccc([N+](=O)[O-])cc2)c1C(=O)Nc1ccccc1 | inconclusive: 6.31 µM [inhibitor, single point] | – |
| CCCn1nnnc1NC(=O)COc1ccc(Br)cc1 | inactive | – |
| COc1[nH]c(/N=C/c2ccccc2)c(C#N)c1C#N | inconclusive: 35.5 µM [activator, single point] | – |
